Measurements reported in patent publication US5149780A (The Scripps Research Institute, priority 1988, dated 1992).
Where a sequence shows no end group, the ends are not given.

Assay: Boc solid-phase peptide synthesis; peptidylglycine a-amidating monooxygenase resins
Settings: whole synthesis, HPLC, C18 μBondapak column, linear gradient 0-60% acetonitrile in 0.1% trifluoroacetic acid

Question: With KYGRRGDS as the sequence, how does the “purity (crude or final not stated)” value read?
Answer: >85%
